The assay concerns the target PrP^Sc of CWD-infected elk brain (CWD-Elk prions, strain CWD2) (elk (endogenous in elk brain)) (UniProt P67986). As to the kind of experiment: sedimentation velocity ultracentrifugation on an iodixanol gradient.

Chains of the proteins cited; added tags and fusions are not shown. Residues count along the entry.
UniProt P67986, residues 25-233: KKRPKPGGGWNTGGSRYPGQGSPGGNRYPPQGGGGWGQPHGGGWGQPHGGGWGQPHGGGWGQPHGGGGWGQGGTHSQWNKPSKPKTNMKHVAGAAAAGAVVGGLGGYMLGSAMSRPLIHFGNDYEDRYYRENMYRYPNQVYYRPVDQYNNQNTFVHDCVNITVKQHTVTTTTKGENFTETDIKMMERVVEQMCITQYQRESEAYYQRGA

Results are given in words; binding and its absence hold for the method and conditions named. Some results given as binding are weak or reduced against the parent protein; the word gives no strength.

On to “PrP^Sc of CWD-infected elk brain (CWD-Elk prions, strain CWD2) (from UniProt P67986 25-233)”, for which the binding entry is given as “binds”.

(Values after article PMC10645910.)
